In the supplement of paper PMC12823440, “Inhibitors supercharge kinase turnover through native proteolytic circuits” (Nature, 2025):
Where a name gives a salt, the structure may show the parent alone. This is one part of the list. The calls rarely recur for the same compound in another form.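 Kinases, fused to nanoluciferase, were expressed in K562 cells; luminescence was measured every 4 h from 2 to 18 h as percent of control (DMSO = 100%, positive control = 0%). A time point is decreased if signal falls significantly (2 sigma). Hits were called by the authors by a rule that is not shown; the count of time points alone does not decide it.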

Sequences of proteins named here, by UniProt entry; tags and fusion partners are left off. A change or cut given only in a name is not applied to a line headed by its entry.
UniProt Q08345: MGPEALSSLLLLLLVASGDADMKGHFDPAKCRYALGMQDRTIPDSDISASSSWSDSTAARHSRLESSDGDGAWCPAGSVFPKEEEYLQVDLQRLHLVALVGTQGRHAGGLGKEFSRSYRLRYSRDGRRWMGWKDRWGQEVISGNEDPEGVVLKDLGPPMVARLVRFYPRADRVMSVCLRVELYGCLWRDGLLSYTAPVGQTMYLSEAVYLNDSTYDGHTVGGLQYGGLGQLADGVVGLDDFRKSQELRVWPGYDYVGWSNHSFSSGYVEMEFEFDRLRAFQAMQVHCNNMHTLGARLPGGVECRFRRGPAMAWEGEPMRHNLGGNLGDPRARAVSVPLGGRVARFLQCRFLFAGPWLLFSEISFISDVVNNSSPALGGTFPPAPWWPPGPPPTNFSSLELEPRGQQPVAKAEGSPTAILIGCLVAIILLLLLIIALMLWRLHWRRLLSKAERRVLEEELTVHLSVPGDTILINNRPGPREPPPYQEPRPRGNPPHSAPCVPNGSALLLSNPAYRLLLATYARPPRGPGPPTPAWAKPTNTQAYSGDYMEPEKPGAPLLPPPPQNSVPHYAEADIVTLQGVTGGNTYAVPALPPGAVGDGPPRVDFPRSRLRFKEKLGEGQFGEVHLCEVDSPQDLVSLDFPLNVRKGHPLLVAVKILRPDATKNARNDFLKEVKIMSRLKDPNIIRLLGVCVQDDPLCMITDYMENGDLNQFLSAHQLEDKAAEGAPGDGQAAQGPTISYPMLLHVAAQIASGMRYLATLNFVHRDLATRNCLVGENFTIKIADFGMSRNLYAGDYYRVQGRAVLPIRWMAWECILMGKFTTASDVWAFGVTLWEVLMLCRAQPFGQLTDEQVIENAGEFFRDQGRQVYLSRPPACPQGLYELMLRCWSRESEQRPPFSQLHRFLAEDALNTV
UniProt Q9Y463, whole entry, looked up: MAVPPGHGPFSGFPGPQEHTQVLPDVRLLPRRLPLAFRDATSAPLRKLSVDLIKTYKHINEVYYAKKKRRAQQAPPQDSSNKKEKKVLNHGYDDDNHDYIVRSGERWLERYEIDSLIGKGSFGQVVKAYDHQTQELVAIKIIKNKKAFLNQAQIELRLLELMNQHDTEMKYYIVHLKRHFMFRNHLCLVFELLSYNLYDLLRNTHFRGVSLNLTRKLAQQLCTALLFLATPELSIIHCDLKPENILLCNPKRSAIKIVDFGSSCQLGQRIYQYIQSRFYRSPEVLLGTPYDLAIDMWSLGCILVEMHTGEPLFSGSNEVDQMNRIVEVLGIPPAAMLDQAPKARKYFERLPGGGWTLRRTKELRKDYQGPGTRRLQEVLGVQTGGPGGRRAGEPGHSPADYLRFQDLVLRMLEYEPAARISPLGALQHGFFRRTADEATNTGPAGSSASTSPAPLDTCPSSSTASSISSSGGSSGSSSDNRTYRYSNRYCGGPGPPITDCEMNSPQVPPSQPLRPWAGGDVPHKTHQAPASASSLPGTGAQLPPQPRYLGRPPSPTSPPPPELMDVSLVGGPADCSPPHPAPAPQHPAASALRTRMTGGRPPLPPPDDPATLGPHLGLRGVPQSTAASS

biological target: DDR1 (UniProt Q08345); test: number of time points (of 5) at which kinase-Nluc abundance scored as decreased, DMSO-normalised (count); higher = more persistent destabilization; conditions: K562; 2-18 h

| Compound | number of time points |
| --- | --- |
| Cn1nccc1Nc1nccc(-c2cc3c(s2)C(C)(C)N(CCN2CCOCC2)C3=O)n1 (10 µM) | 0 |
| Cc1ccc(-c2c(C(=O)CCl)n(CCCO)c3ncnc(N)c23)cc1 (10 µM) | 0 |
| N[C@H](Cc1c[nH]c2ccccc12)C(=O)N/N=C/c1ccc2nccnc2c1 [Rhosin (hydrochloride)] (10 µM) | 0 |
| CNCc1ccccc1-c1csc([C@@H](C)Nc2nc(C)nc3cc(OC)c(OC)cc23)c1 (2.5 µM) | 0 |
| Cn1cnc(-c2cc3nccc(Oc4ccc(NC(=S)NC(=O)Cc5ccccc5)cc4F)c3s2)c1 [MGCD-265 analog] (10 µM) | 2 |
| C=C1C(=O)O[C@@H]2C[C@@]3(C)CCC[C@H](C)C3=C[C@H]12 [Alantolactone] (10 µM) | 4 |
| O=C(Nc1ccc(F)cc1F)[C@H](NC(=S)Nc1cc(C(F)(F)F)cc(C(F)(F)F)c1)c1ccccc1 (2.5 µM) | 0 |
| Fc1ccc(-c2nc(-c3ccccc3F)[nH]c2-c2ccncc2)cc1 (2.5 µM) | 0 |
| Cc1ccc(Oc2nc3cc(-c4ccc5c(ccn5C)c4)c(Cl)cc3[nH]2)cc1C(=O)O (10 µM) | 0 |
| COc1ccc([C@H]2c3[nH]c4ccc(Cl)cc4c3CCN2C(=O)Oc2ccc(Cl)cc2)cc1 (2.5 µM) | 0 |
| COc1ncc(-c2nc(N3CCOCC3)nc3c(CN4CCC(C(C)(C)O)CC4)cc(F)cc23)cc1NS(C)(=O)=O [Linperlisib] (10 µM) | 0 |
| C[C@@H](c1ccc2nccn2c1)n1nnc2ncc(-c3cnn(C)c3)nc21 [Savolitinib] (10 µM) | 0 |
| CCn1c(-c2nonc2N)nc2cnc(Oc3cccc(NC(=O)c4ccc(OCCN5CCOCC5)cc4)c3)cc21 (10 µM) | 0 |
| COc1ccc(C(=O)Nc2sc3c(c2C(N)=O)CCCC3)cc1OC (10 µM) | 0 |
| COc1ccc(CC(=O)Nc2nc3c(s2)CCc2ccccc2-3)cc1OC (10 µM) | 0 |
| O=C1Nc2nc(-c3c(O)cccc3OCC3CC3)cc([C@@H]3CCCNC3)c2CO1 [Bay 65-1942 (hydrochloride)] (10 µM) | 0 |

biological target: DYRK1B (UniProt Q9Y463); test: as above; conditions: K562; 2-18 h

| Compound | number of time points |
| --- | --- |
| COc1cc(S(C)(=O)=O)ccc1Nc1nc2ccc(-c3ccc(NC(=O)[C@H](C)c4ccc(F)cc4)cc3)cn2n1 [Empesertib] (10 µM) | 0 |
| CO[C@H]1C[C@@H]2CC[C@@H](C)[C@@](O)(O2)C(=O)C(=O)N2CCCC[C@H]2C(=O)O[C@H]([C@H](C)C[C@@H]2CC[C@@H](O)[C@H](OC)C2)CC(=O)[C@H](C)/C=C(\C)[C@@H](O)[C@@H](OC)C(=O)[C@H](C)C[C@H](C)/C=C/C=C/C=C/1C [Rapamycin] (10 µM) | 0 |
| COc1ccc(Cl)cc1NC(=O)Nc1cc(C)nc2ccccc12 (2.5 µM) | 0 |
| CNc1nc(Nc2cnn(C3CCN(C4COC4)CC3F)c2Cl)ncc1C(F)(F)F (stereo unspecified) (10 µM) | 0 |
| Cc1ccc2nc(NC(=O)CSc3nc4c(c(=O)n3-c3ccccc3)SCC4)sc2c1 (2 µM) | 0 |
| Cc1noc(C)c1-c1ccc(-c2cc(C(N)=O)c(NC(N)=O)s2)c(O[C@H]2CCNC2)c1 (10 µM) | 0 |
| Fc1ccc(-c2nc(-c3c(F)cccc3F)[nH]c2-c2ccncc2)cc1 (10 µM) | 0 |
| C=CC(=O)Nc1ccc(CN(C(=O)Nc2c(Cl)c(OC)cc(OC)c2Cl)c2cc(Nc3ccc(N4CCN(C)CC4)cc3)ncn2)cc1 (10 µM) | 0 |
| CCN(CC)c1ccc2cc(C(=O)N3CCN(C(=O)C4=Cc5c(Br)cccc5S4(=O)=O)CC3)c(=O)oc2c1 (2 µM) | 0 |
| CN1CCN(c2ccc(Nc3ncc4nc(Nc5ccccc5)n([C@@H]5CCN(S(=O)(=O)C6CC6)C5)c4n3)cc2)CC1 (2.5 µM) | 0 |
| COCCOc1ccc(-c2cn(-c3ccccc3)c3nc[nH]c(=O)c23)cc1 (10 µM) | 0 |
| CC(C)CC1(O)CCN(C(=O)c2ccc(NS(=O)(=O)c3cccc4nccnc34)cc2)CC1 (10 µM) | 0 |
| Cc1cc(Nc2cc(Cl)nc(Oc3ccc([N+](=O)[O-])cc3)n2)n[nH]1 [Autophinib] (2.5 µM) | 0 |
| O=C(NCCO)c1ccc2c(c1)nc(Nc1cccc(Cl)c1)c1ccncc12 [CK2 inhibitor 2] (10 µM) | 0 |
| COc1ccc(C2CC(c3ccccc3)=NN2c2ccc(S(N)(=O)=O)cc2)cc1 (stereo unspecified) (10 µM) | 0 |

Sorted by number of heavy atoms (rising): 3 of the compounds above

| Compound | number of time points |
| --- | --- |
| Fc1ccc(-c2nc(-c3c(F)cccc3F)[nH]c2-c2ccncc2)cc1 (10 µM) | 0 |
| CCN(CC)c1ccc2cc(C(=O)N3CCN(C(=O)C4=Cc5c(Br)cccc5S4(=O)=O)CC3)c(=O)oc2c1 (2 µM) | 0 |
| COc1cc(S(C)(=O)=O)ccc1Nc1nc2ccc(-c3ccc(NC(=O)[C@H](C)c4ccc(F)cc4)cc3)cn2n1 [Empesertib] (10 µM) | 0 |
